This is one part of the list. Residues, ends and D or L forms follow the SMILES beside them. *: point of attachment. Cbz = O=C(OCc1ccccc1)*
What was measured:
Experiment in all cases: log2 fold change, soluble protein after heating vs DMSO (PISA); higher = thermal stabilisation; K562 cells, 10 uM, 30 min; active = over 0.2 and 3.5 SD of the protein, either way, in both replicates (recomputed)
[1] = compound: C#Cc1cccc(Nc2ncnc3cc(OCCOC)c(OCCOC)cc23)c1 [erlotinib]
Method in brief: (§1)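 Soluble protein was quantified by TMTpro 16plex LC-MS/MS after channel sums were equalised. It was obtained as the supernatant after 21,000xg for 90 min from pooled aliquots of K562 cells (2×10^6 cells/mL, 10 μM compound, 30 min) heated for 3 min across 48°C-58°C and extracted in PBS with 0.5% NP-40 at 4°C. Thermal stability values are relative to control samples and come from duplicates. They are given as log2 fold changes.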

By UniProt entry, the sequences of proteins in these tests, tags left out. Where a name states a change or a piece, a line headed by the entry shows the natural chain unless it says otherwise.
UniProt Q96IX5: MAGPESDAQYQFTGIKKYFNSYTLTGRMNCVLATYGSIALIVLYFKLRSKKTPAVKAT
UniProt P16615: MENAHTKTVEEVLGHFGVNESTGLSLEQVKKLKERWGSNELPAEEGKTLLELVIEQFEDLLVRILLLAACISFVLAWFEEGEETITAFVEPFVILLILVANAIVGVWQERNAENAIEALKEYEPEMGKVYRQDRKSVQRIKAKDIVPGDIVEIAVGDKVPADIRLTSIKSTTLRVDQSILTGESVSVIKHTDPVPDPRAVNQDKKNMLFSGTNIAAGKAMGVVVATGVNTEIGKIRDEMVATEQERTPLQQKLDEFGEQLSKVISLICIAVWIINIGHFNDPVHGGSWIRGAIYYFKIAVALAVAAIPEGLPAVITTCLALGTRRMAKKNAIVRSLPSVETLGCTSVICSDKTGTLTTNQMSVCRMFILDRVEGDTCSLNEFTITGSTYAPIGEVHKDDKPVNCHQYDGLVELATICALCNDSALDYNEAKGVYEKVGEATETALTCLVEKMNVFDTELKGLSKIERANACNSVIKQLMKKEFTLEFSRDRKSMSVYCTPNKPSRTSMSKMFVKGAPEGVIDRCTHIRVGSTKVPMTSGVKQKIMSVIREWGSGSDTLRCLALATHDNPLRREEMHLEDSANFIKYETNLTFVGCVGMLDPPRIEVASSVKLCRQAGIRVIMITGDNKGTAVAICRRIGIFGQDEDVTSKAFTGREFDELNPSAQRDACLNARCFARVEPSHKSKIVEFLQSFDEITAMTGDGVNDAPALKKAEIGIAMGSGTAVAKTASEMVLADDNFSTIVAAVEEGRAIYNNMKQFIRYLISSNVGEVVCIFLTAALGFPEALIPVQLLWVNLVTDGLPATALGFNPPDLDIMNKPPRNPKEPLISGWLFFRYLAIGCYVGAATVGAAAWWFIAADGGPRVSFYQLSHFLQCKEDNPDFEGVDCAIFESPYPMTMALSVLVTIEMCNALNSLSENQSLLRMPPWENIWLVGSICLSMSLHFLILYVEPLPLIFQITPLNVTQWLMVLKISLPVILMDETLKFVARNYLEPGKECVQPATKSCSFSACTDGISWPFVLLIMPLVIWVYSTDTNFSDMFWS
UniProt P25705: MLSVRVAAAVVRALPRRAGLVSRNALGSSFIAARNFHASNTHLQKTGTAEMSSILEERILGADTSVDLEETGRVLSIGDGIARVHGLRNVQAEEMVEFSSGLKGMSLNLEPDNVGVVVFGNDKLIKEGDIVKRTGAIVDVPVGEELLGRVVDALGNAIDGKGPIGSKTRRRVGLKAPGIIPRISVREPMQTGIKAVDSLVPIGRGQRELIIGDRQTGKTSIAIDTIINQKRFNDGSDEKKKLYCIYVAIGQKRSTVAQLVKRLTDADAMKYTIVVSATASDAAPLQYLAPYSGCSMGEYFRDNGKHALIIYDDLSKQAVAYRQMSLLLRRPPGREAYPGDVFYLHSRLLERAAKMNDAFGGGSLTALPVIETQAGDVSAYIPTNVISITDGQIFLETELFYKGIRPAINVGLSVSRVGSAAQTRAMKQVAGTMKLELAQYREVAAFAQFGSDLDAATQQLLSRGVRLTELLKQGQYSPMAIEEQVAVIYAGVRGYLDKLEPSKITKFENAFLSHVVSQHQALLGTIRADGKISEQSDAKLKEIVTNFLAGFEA
UniProt P18859: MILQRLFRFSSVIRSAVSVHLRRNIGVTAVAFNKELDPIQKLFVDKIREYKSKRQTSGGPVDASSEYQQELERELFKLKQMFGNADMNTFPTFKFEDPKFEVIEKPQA
UniProt Q96BM9: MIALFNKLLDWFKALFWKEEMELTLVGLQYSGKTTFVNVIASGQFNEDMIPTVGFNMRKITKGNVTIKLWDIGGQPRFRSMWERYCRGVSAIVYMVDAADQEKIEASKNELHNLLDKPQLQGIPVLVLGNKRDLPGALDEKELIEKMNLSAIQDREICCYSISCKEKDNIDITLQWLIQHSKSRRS
UniProt Q8IZT6: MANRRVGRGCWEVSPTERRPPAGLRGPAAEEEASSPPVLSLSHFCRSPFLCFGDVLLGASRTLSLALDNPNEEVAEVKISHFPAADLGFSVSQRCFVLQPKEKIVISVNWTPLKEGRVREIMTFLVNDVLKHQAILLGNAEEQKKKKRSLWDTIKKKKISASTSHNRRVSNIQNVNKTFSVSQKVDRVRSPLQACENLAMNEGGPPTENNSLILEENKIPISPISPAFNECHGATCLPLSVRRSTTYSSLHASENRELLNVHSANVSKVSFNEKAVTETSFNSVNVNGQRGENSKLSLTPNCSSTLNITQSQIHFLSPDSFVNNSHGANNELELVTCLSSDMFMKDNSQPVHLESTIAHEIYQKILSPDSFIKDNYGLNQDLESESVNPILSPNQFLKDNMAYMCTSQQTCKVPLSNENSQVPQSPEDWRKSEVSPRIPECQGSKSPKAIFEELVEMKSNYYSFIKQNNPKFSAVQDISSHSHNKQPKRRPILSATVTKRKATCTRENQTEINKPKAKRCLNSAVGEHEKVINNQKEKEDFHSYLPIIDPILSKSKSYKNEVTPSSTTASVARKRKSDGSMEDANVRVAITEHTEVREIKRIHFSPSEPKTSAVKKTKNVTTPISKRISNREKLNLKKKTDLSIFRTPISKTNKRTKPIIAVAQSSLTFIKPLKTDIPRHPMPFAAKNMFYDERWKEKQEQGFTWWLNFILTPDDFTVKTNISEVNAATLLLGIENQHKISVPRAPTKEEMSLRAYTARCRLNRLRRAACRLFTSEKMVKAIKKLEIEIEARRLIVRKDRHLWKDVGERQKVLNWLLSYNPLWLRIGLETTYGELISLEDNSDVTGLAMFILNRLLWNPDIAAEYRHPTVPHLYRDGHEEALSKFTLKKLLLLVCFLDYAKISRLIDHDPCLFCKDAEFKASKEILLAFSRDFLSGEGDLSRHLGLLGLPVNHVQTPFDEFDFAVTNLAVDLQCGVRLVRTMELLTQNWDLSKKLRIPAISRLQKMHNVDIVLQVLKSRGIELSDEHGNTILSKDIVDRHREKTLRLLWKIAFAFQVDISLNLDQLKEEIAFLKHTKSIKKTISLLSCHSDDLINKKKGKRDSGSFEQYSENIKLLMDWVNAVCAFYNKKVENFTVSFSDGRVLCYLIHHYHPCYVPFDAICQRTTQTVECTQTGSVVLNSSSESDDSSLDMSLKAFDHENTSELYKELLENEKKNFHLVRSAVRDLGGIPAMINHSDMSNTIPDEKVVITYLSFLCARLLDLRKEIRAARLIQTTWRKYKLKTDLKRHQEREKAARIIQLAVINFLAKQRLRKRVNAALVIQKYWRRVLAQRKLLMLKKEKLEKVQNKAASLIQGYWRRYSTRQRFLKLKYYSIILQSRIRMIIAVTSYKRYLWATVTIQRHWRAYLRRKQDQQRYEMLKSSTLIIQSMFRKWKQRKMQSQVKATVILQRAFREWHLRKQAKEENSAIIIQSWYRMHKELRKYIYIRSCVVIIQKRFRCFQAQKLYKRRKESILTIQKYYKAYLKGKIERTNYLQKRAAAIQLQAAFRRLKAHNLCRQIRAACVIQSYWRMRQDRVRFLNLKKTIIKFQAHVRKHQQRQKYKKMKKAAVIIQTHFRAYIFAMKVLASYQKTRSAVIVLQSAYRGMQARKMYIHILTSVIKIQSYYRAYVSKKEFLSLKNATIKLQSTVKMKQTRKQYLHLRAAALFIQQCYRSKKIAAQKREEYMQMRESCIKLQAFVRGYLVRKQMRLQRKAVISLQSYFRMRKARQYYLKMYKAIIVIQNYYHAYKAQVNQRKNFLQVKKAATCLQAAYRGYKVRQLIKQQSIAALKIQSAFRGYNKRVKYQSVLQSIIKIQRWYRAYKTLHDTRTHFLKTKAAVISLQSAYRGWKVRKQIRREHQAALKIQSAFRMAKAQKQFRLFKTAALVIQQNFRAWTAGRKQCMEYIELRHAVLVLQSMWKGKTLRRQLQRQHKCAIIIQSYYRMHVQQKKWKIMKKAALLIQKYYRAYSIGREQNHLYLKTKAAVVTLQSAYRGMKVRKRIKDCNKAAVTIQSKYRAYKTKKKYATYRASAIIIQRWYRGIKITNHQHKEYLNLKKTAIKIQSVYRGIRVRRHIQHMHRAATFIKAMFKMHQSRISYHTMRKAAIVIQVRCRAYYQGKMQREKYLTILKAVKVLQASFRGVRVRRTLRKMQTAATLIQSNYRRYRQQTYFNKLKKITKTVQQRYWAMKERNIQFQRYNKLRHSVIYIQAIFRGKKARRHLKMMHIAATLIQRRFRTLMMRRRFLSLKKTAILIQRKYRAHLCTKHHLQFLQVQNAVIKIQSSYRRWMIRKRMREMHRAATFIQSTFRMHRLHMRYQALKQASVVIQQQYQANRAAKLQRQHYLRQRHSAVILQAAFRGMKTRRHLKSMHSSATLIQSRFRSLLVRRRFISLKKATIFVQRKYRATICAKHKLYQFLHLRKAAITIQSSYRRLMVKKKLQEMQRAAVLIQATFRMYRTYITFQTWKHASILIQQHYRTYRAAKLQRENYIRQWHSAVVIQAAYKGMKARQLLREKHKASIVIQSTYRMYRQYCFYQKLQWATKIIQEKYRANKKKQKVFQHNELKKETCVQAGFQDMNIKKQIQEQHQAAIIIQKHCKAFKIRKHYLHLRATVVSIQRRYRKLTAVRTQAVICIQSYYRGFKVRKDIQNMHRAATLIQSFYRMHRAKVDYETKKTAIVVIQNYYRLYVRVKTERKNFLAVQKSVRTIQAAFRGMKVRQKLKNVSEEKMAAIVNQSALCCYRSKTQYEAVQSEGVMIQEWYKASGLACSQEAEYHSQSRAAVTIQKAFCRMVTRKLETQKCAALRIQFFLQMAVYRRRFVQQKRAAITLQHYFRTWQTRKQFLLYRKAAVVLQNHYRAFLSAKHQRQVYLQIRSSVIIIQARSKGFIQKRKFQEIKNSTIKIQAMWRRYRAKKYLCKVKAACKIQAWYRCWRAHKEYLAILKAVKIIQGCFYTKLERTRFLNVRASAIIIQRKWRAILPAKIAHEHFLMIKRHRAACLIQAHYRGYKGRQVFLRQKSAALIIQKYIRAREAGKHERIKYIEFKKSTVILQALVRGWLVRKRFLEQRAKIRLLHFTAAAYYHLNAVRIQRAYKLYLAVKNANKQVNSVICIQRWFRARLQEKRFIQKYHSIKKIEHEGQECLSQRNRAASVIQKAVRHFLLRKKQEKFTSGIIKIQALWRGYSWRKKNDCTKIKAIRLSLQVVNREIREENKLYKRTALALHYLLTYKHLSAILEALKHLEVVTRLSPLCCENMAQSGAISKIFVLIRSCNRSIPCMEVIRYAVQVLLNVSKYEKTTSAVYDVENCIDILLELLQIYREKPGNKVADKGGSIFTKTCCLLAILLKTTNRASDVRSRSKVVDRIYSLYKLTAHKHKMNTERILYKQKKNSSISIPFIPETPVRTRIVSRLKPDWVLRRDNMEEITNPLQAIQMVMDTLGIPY
UniProt L0R819, whole entry, looked up: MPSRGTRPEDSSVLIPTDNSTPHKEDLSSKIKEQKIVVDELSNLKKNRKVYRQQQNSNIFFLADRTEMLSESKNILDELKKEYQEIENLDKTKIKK
UniProt P15848: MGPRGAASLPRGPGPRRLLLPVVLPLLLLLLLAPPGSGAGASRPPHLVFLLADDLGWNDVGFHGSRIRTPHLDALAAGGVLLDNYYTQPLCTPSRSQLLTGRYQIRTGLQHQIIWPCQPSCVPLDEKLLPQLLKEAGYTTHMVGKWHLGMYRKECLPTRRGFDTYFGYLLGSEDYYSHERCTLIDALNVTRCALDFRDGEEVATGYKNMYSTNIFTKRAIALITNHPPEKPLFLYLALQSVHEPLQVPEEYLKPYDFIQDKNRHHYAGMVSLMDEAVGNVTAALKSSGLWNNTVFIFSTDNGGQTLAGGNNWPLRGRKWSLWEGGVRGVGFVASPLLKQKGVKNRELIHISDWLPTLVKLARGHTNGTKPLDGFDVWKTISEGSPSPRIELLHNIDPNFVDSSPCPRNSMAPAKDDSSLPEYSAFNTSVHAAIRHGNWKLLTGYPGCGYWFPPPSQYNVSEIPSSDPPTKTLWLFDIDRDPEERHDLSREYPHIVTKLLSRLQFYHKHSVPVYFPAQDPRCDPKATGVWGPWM
UniProt Q8N5M1: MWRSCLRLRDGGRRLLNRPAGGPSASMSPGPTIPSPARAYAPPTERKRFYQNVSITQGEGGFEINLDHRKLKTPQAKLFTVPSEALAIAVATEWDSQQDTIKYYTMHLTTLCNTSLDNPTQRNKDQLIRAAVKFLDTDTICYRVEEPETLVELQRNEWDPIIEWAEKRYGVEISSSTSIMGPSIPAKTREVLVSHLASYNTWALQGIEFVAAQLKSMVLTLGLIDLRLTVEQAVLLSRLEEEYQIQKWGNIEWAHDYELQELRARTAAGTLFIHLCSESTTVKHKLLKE
UniProt Q15041, whole entry, looked up: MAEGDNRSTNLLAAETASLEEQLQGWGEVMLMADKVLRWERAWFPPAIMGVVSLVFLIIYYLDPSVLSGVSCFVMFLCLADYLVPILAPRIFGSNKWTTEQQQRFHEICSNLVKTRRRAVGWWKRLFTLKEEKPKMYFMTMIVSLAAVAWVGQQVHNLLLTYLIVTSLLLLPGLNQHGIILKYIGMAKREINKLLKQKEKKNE

[2] = compound: C/C(=N\NC(=O)C1=CC(=CC=C1)S(=O)(=O)N2CCOCC2)/C3=C(C=CC(=C3)Cl)O
Method in brief: as §1

[3] = compound: C1=CC(=C(C=C1Cl)C2=NC3=NC=CN=C3C(=N2)NC4=CC=NC=C4)F
Method in brief: as §1

[4] = compound: C1=CC(=CC=C1C2=NC3=C(N2)C=C(C=C3)C(=O)N)OC4=CC=C(C=C4)Cl
Method in brief: as §1

[5] = compound: C1=CC2=C(C=CC(=C2)/C=C\3/C(=O)NC(=NCC4=CC=CS4)S3)N=C1
Method in brief: as §1

[6] = compound: C1=CC2=NC=CN=C2C=C1/C=C/3\C(=O)NC(=O)S3
Method in brief: as §1

[7] = compound: C1=CC=C(C=C1)C2=NC(=C(N2)C3=CC=NC=C3)C4=CC(=C(C=C4)Cl)O
Method in brief: as §1

[8] = compound: C1=CC=C2C(=C1)C3=NNC4=CC=CC(=C43)C2=O
Method in brief: as §1

[9] = compound: C1CCN(C1)C(=O)NC2=CC=CC(=C2)NC3=NC=C(C(=N3)NCCC4=CN=CN4)Br
Method in brief: as §1

[10] = compound: C1CN(CCC1(CC2=CC=C(C=C2)Cl)N)C3=NC=NC4=C3C=CN4
Method in brief: as §1

[11] = compound: C1COCCN1CCN2C3=CC=CC=C3N=C2NC(=O)C4=CC(=CC=C4)[N+](=O)[O-] [IRAK-1-4 Inhibitor I]
Method in brief: as §1

[12] = compound: C=CC(=O)N1CCC[C@@H](n2nc(-c3ccc(Oc4ccccc4)cc3)c3c(N)ncnc32)C1 [ibrutinib]
Method in brief: as §1

[13] = compound: CC(=O)c1cnc2ccc(-c3cc(Cl)c(O)c(Cl)c3)nc2c1N[C@H]1CC[C@H](CN(C)C)CC1
Method in brief: as §1

[14] = compound: CC(C)(C)Cn1c(N)nc2ccc(-c3[nH]c(C(C)(C)C)nc3-c3ccc(F)cc3)nc21 [ralimetinib]
Method in brief: as §1

[15] = compound: CC(C)(O)CC(=O)NCCn1ccc2ncnc(Nc3ccc(Oc4cccc(C(F)(F)F)c4)c(Cl)c3)c21
Method in brief: as §1

[16] = compound: CC(C)C1=C2N=C(C=C(N2N=C1)NCC3=CC=CC=C3)NCCCCCCN
Method in brief: as §1

[17] = compound: CC(C)C[C@@H](C=O)NC(=O)[C@H](CC(C)C)NC(=O)[C@H](CC(C)C)NC(=O)OCc1ccccc1
Method in brief: as §1

[18] = compound: CC(C)N(C[C@H]1O[C@@H](n2cnc3c(N)ncnc32)[C@H](O)[C@@H]1O)[C@H]1C[C@@H](CCc2nc3cc(C(C)(C)C)ccc3[nH]2)C1 [pinometostat]
Method in brief: as §1

[19] = compound: CC1=C(C(CC(=O)N1)C2=CC=C(C=C2)C(F)(F)F)C(=O)NC3=C(C=C4C(=C3)C=NN4)F
Method in brief: as §1

[20] = compound: CC1=C(C2=C(C=C1)C(=O)C3=CC=CC=C3N2CCCN)C
Method in brief: as §1

Measured: log2 fold change

ATP2C1 isoform 7 (UniProt P98194)
inactive: [1] -0.01 | [2] 0.042 | [3] 0.127 | [4] 0.033 | [5] 0.015 | [6] 0.043 | [7] 0 | [8] -0.008 | [9] 0.049 | [10] 0.034 | [11] 0.068 | [12] -0.009 | [13] 0.002 | [14] -0.051 | [15] -0.094 | [16] -0.093 | [17] -0.026 | [18] -0.013 | [19] 0.003 | [20] -0.052

ARRB1 (UniProt P49407)
inactive: [1] 0.017 | [2] 0.139 | [3] 0 | [4] 0 | [5] -0.045 | [6] -0.007 | [7] -0.067 | [8] 0.029 | [9] -0.011 | [10] 0.055 | [11] 0.045 | [12] 0.007 | [13] 0.073 | [14] -0.056 | [15] -0.008 | [16] 0.003 | [17] -0.023 | [18] -0.016 | [19] 0.021 | [20] 0.059

ATP5MD (UniProt Q96IX5)
inactive: [1] -0.076 | [2] 0.114 | [3] 0.11 | [4] 0.007 | [5] -0.039 | [6] -0.085 | [7] -0.046 | [8] -0.021 | [9] 0.077 | [10] 0.126 | [11] 0.078 | [12] 0.107 | [13] 0 | [14] -0.038 | [15] 0.024 | [16] 0.051 | [17] 0.014 | [18] 0.016 | [19] 0.061 | [20] 0.028

ATP2A2 (UniProt P16615)
inactive: [1] -0.016 | [2] 0.024 | [3] 0.066 | [4] -0.02 | [5] 0.019 | [6] 0.049 | [7] 0.018 | [8] -0.007 | [9] 0.014 | [10] 0.043 | [11] 0.017 | [12] -0.033 | [13] -0.025 | [14] -0.044 | [15] -0.009 | [16] -0.039 | [17] -0.018 | [18] -0.03 | [19] -0.027 | [20] 0.028

ATP5F1A (UniProt P25705)
inactive: [1] -0.008 | [2] -0.044 | [3] 0.002 | [4] -0.008 | [5] -0.026 | [6] 0.002 | [7] -0.04 | [8] 0.035 | [9] 0.031 | [10] 0.037 | [11] 0.027 | [12] -0.023 | [13] 0.021 | [14] -0.018 | [15] 0.028 | [16] 0.057 | [17] 0.055 | [18] -0.035 | [19] 0.016 | [20] -0.003

ATP5PF isoform 2 (UniProt P18859)
inactive: [1] -0.126 | [2] -0.042 | [3] 0.2 | [4] -0.004 | [5] 0.112 | [6] 0.057 | [7] 0.006 | [8] 0.03 | [9] 0.039 | [10] -0.143 | [11] 0.028 | [12] 0.013 | [13] -0.019 | [14] -0.132 | [15] -0.036 | [16] 0.127 | [17] -0.057 | [18] -0.097 | [19] 0.015 | [20] -0.165

ATP13A1 (UniProt Q9HD20)
inactive: [1] -0.023 | [2] 0.06 | [3] 0.037 | [4] 0.005 | [5] 0.024 | [6] 0.033 | [7] -0.007 | [8] -0.005 | [9] -0.017 | [10] 0.018 | [11] 0.014 | [12] -0.02 | [13] -0.007 | [14] -0.022 | [15] -0.141 | [16] -0.018 | [17] -0.019 | [18] 0.028 | [19] -0.036 | [20] 0.081

Quoted from the results shown (three entries):
ATP2A2 (UniProt P16615)
inactive: [1] -0.016 | [2] 0.024 | [3] 0.066 | [4] -0.02 | [5] 0.019 | [6] 0.049 | [7] 0.018 | [8] -0.007 | [9] 0.014 | [10] 0.043 | [11] 0.017 | [12] -0.033 | [13] -0.025 | [14] -0.044 | [15] -0.009 | [16] -0.039 | [17] -0.018 | [18] -0.03 | [19] -0.027 | [20] 0.028

ATP5F1A (UniProt P25705)
inactive: [1] -0.008 | [2] -0.044 | [3] 0.002 | [4] -0.008 | [5] -0.026 | [6] 0.002 | [7] -0.04 | [8] 0.035 | [9] 0.031 | [10] 0.037 | [11] 0.027 | [12] -0.023 | [13] 0.021 | [14] -0.018 | [15] 0.028 | [16] 0.057 | [17] 0.055 | [18] -0.035 | [19] 0.016 | [20] -0.003

ATP5PF isoform 2 (UniProt P18859)
inactive: [1] -0.126 | [2] -0.042 | [3] 0.2 | [4] -0.004 | [5] 0.112 | [6] 0.057 | [7] 0.006 | [8] 0.03 | [9] 0.039 | [10] -0.143 | [11] 0.028 | [12] 0.013 | [13] -0.019 | [14] -0.132 | [15] -0.036 | [16] 0.127 | [17] -0.057 | [18] -0.097 | [19] 0.015 | [20] -0.165

Next part.

ASMTL (UniProt O95671)
inactive: [1] 0.223 | [2] 0.059 | [3] 0.223 | [4] -0.075 | [5] 0.067 | [6] -0.167 | [7] -0.239 | [8] 0.025 | [9] 0.071 | [10] -0.219 | [11] 0.017 | [12] -0.022 | [13] -0.014 | [14] -0.118 | [15] -0.072 | [16] -0.213 | [17] 0.218 | [18] 0.008 | [19] 0.102 | [20] -0.155

ARL8A (UniProt Q96BM9)
inactive: [1] 0.048 | [2] -0.019 | [3] 0.043 | [4] -0.009 | [5] 0.05 | [6] 0.003 | [7] -0.11 | [8] 0.032 | [9] 0.145 | [10] -0.029 | [11] 0.093 | [12] 0.037 | [13] 0.041 | [14] -0.058 | [15] -0.016 | [16] -0.053 | [17] 0.044 | [18] 0.012 | [19] -0.008 | [20] -0.119

ATG2A isoform 3 (UniProt Q2TAZ0)
inactive: [1] -0.003 | [2] 0.032 | [3] 0.059 | [4] 0.014 | [5] 0.062 | [6] 0.011 | [7] 0.009 | [8] -0.037 | [9] 0.035 | [10] 0.088 | [11] 0.047 | [12] -0.018 | [13] -0.023 | [14] -0.017 | [15] -0.046 | [16] 0.01 | [17] 0.031 | [18] 0.028 | [19] 0.017 | [20] 0.056

ASPM (UniProt Q8IZT6)
inactive: [1] -0.023 | [2] 0.135 | [3] -0.007 | [4] 0.073 | [5] -0.034 | [6] -0.076 | [7] -0.017 | [8] 0.003 | [9] -0.015 | [10] 0.08 | [11] -0.034 | [12] -0.006 | [13] -0.012 | [14] -0.001 | [15] -0.081 | [16] 0.079 | [17] 0.03 | [18] -0.071 | [19] -0.2 | [20] 0.083

ATP5MF (UniProt P56134)
inactive: [1] 0.036 | [2] -0.008 | [3] 0.008 | [4] 0.005 | [5] 0.004 | [6] 0.047 | [7] -0.009 | [8] -0.045 | [9] 0.02 | [10] 0.025 | [11] 0.03 | [12] 0.011 | [13] -0.009 | [14] -0.024 | [15] 0.006 | [16] -0.012 | [17] 0.001 | [18] 0.022 | [19] -0.033 | [20] 0.023

ASDURF (UniProt L0R819)
inactive: [1] -0.028 | [2] 0.013 | [3] -0.08 | [4] 0.032 | [5] -0.022 | [6] 0 | [7] -0.103 | [8] -0.056 | [9] 0.013 | [10] 0.014 | [11] 0.036 | [12] 0.015 | [13] 0.072 | [14] 0.005 | [15] 0.023 | [16] 0.07 | [17] -0.001 | [18] -0.035 | [19] 0.04 | [20] -0.039

ARSB (UniProt P15848)
inactive: [1] 0.021 | [2] 0 | [3] 0.024 | [4] -0.006 | [5] 0.03 | [6] 0.02 | [7] 0.006 | [8] -0.035 | [9] 0.01 | [10] -0.001 | [11] 0.011 | [12] 0.044 | [13] -0.11 | [14] -0.009 | [15] 0.015 | [16] 0.002 | [17] -0.013 | [18] -0.094 | [19] 0.011 | [20] 0.027

ATPAF2 (UniProt Q8N5M1)
inactive: [1] 0.026 | [2] -0.009 | [3] 0.087 | [4] -0.08 | [5] 0.015 | [6] -0.024 | [7] -0.066 | [8] 0.04 | [9] 0.02 | [10] -0.017 | [11] -0.005 | [12] -0.011 | [13] 0.029 | [14] -0.053 | [15] 0.036 | [16] 0.005 | [17] -0.062 | [18] -0.029 | [19] 0 | [20] -0.059

ARL6IP1 (UniProt Q15041)
inactive: [1] 0.071 | [2] -0.044 | [3] 0.064 | [4] -0.064 | [5] -0.075 | [6] 0.017 | [7] -0.002 | [8] 0.005 | [9] -0.029 | [10] 0.032 | [11] -0.033 | [12] 0.062 | [13] 0.058 | [14] -0.052 | [15] -0.034 | [16] 0.079 | [17] -0.072 | [18] -0.029 | [19] 0.058 | [20] -0.004

— the supplement of paper PMC10849652
